Experimental data: PMC13101372
Results are given in words; binding and its absence hold for the method and conditions named. Some binding calls cover weakened binding; strength is not graded here.

Target: T1, Glast multimers (endogenous murine Glast, multimeric form) (mouse (endogenous in primary astrocytes)), P56564
T1 chain: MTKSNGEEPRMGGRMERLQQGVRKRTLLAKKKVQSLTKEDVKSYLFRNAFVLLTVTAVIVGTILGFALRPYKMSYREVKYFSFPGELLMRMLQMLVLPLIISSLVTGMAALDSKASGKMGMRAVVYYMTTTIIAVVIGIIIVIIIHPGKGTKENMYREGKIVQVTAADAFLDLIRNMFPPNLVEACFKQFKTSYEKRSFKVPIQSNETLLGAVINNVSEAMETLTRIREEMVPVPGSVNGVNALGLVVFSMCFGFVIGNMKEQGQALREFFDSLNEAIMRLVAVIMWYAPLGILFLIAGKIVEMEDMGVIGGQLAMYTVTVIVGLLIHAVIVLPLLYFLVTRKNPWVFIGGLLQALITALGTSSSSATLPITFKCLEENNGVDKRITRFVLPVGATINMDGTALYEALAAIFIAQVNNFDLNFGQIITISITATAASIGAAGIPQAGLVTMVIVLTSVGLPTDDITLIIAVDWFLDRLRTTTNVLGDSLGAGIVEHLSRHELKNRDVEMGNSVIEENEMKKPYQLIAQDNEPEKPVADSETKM
Experiment: Western blot of lysates (multimer bands that resist solubilisation); anti-Glast Western blots of lysates from three independent primary astrocyte cultures
Conditions: remark: other sources report otherwise

binding: binds
B1: Glast multimers (endogenous murine Glast, multimeric form), P56564 1-543 (complex)
chain: MTKSNGEEPRMGGRMERLQQGVRKRTLLAKKKVQSLTKEDVKSYLFRNAFVLLTVTAVIVGTILGFALRPYKMSYREVKYFSFPGELLMRMLQMLVLPLIISSLVTGMAALDSKASGKMGMRAVVYYMTTTIIAVVIGIIIVIIIHPGKGTKENMYREGKIVQVTAADAFLDLIRNMFPPNLVEACFKQFKTSYEKRSFKVPIQSNETLLGAVINNVSEAMETLTRIREEMVPVPGSVNGVNALGLVVFSMCFGFVIGNMKEQGQALREFFDSLNEAIMRLVAVIMWYAPLGILFLIAGKIVEMEDMGVIGGQLAMYTVTVIVGLLIHAVIVLPLLYFLVTRKNPWVFIGGLLQALITALGTSSSSATLPITFKCLEENNGVDKRITRFVLPVGATINMDGTALYEALAAIFIAQVNNFDLNFGQIITISITATAASIGAAGIPQAGLVTMVIVLTSVGLPTDDITLIIAVDWFLDRLRTTTNVLGDSLGAGIVEHLSRHELKNRDVEMGNSVIEENEMKKPYQLIAQDNEPEKPVADSETKM
